The nature of the series: Stabilization of AtHNL at low pH (half life).

B1: AtHNL: hydroxynitrile lyase from Arabidopsis thaliana, polypeptide of the invention, SEQ ID NO: 1 (protein, listed as Arabidopsis thaliana)
chain: MERKHHFVLVHNAYHGAWIWYKLKPLLESAGHRVTAVELAASGIDPRPIQAVETVDEYSKPLIETLKSLPENEEVILVGFSFGGINIALAADIFPAKIKVLVFLNAFLPDTTHVPSHVLDKYMEMPGGLGDCEFSSHETRNGTMSLLKMGPKFMKARLYQNCPIEDYELAKMLHRQGSFFTEDLSKKEKFSEEGYGSVQRVYVMSSEDKAIPCDFIRWMIDNFNVSKVYEIDGGDHMVMLSKPQKLFDSLSAIATDYM
With B1, the half life result runs as follows: (pH of 5, 200 mg/ml of sorbitol) “more than 72 hours”; (pH of 5, without additive) 3 h.

These data come from patent publication US8940516B2, “Method for the synthesis of chiral cyanohydrins via a hydroxynitrile lyase from brassicaceae” (Evocatal GmbH, priority 2006, dated 2015).
